Reference: PubChem BioAssay AID1259415 (National Center for Advancing Translational Sciences (NCATS), 2018)
Hit rate of the full screen: of about 410,000 compounds, about 18,000 (4.4%) were called active. Inconclusive means that the source gave no clear call. Such entries were picked first, then a sample of the others. Cut-off read from the data, not from the text of the source: active = activity change below about -60%; inconclusive = no clear call, values can overlap the other calls; inactive = above about -39%.

Experiment: qHTS Assay for inhibitors of the human cytomegalovirus (HCMV)
Conditions: HFF cells, HCMV-luciferase reporter, 72 h; at 57.5 µM; active compounds read low
Summary of the method: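 Screen run at 2 compound doses on HFFs infected with reporter HCMV, MOI 1 PFU/cell. Luciferase activity from cell lysates at 72 h post infection gave inhibition relative to buffer-only and Salinomycin wells.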
% is set by controls: 0 for no effect and ±100 for the full control effect.

SMILES | activity change, negative = inhibition
Cc1ccnc(NS(=O)(=O)c2ccc(NC(=O)Cc3ccccc3)cc2)n1 | inactive: -2.16%
C=Cc1ccc(Cn2c(C)c(C(=O)NCc3ccc(C#N)cc3)sc2=O)cc1 | active: -60.5%
CC1(C)Cc2c(c(N3CCOCC3)nc3sc4c(NCc5ccccc5)nnnc4c23)CS1 | inconclusive: -43.2%
Cc1c(C(=O)NCc2ccc3c(c2)OCO3)sc(=O)n1Cc1ccc(S(C)(=O)=O)cc1 | inconclusive: -55.4%
Cc1cc([N+](=O)[O-])nn1CCCC(=O)Nc1cc(Oc2ccccc2)cc([N+](=O)[O-])c1 | inconclusive: -47.7%
O=C(CC1N=C2c3ccccc3N=C(SCC(=O)Nc3ccccc3F)N2C1=O)NCc1cccs1 (stereo unspecified) | inactive: 18.4%
COc1ccc2oc(-c3ccc(C)c(NC(=O)c4ccc(N5CCOCC5)c([N+](=O)[O-])c4)c3)nc2c1 | active: -81.2%
CCn1c(CNc2nc3ccccc3n2C(C)C)nc2ccccc21 | inconclusive: -44.8%
CC1=Nc2cc(C(=O)NC(C)C)ccc2Sc2ccc(C)cc21 | active: -76.9%
CCOC(=O)C1=C(C)NC(=S)N(C(C)=O)C1c1ccc(OC)c(OC)c1 (stereo unspecified) | inconclusive: -52.8%
CC1(C)CC(=O)C(N=Nc2ccc(F)cc2)=C(O)C1 | inactive: -29.2%
CCc1c(C)[nH]c2ccc(OC)cc2c1=S | active: -71%
Cc1ccc(-n2c(SCC(N)=O)nc3c(c2=O)C2(CCCC2)Cc2ccccc2-3)cc1 | inconclusive: -56.1%
CC(C)CCNC(=O)C(c1cccnc1)N(CCc1ccccc1)C(=O)Cn1nnc2ccccc21 (stereo unspecified) | inconclusive: -43.5%
Cc1ccc(S(=O)(=O)N(C)c2cc(S(=O)(=O)N3CCC(C)CC3)c(C)cc2C)cc1 | inconclusive: -47.3%
CC1(C)CC(=O)C(C(N)=NC(=O)c2ccccc2)=C(O)C1 | inconclusive: -50.3%
Cc1cc(C)cc(NC(=O)C2CCN(S(=O)(=O)c3cccc(-c4noc(C)n4)c3)CC2)c1 | inconclusive: -44.5%
O=C(NCCOc1ccccc1)C(c1ccccc1)c1ccccc1 | inactive: -13.1%
COc1ccccc1-c1cnc2c(Nc3cccc(OC(F)(F)C(F)F)c3)nccn12 | inconclusive: -54.2%
COCCSc1ncnc2c1oc1nc3c(cc12)COC(C)(C)C3 | inactive: 22.3%
COc1ccc(-c2sc3ccccc3c2/C=C/c2ccc(OC)c(OC)c2)cc1 | inactive: -20.1%
Cn1nc(C(F)(F)F)c(C#N)c1N1CCN(c2ccccc2)CC1 | inconclusive: -55.9%

SMILES | activity change, negative = inhibition
O=C(c1cccc(S(=O)(=O)N2CCc3ccccc32)c1)N1CCN(CCO)CC1 | inactive: -13.5%
CCOc1ccc(N(CC(=O)Nc2ccccc2C(=O)NC(C)CC)S(C)(=O)=O)cc1 (stereo unspecified) | inconclusive: -47.9%
CCCCCNC(=O)CCn1c(=O)[nH]c2ccccc2c1=O | inactive: -30.7%
COc1ccc(-c2c(C#Cc3ccccc3)c3ccccc3n2C)cc1 | active: -78.4%
Nc1c(C(=O)Nc2ccc(F)cc2)sc(=S)n1-c1ccccc1F | inconclusive: -43%
O=C(Nc1ccnn1C1CCN(C(=O)Cc2cccc(Cl)c2)CC1)C1CC1 | inactive: 29.4%
Cc1cc(=O)oc2c(C)c(OC(C)C(=O)NCC(O)c3ccccc3)ccc12 (stereo unspecified) | inconclusive: -50.4%
O=C(CSc1ccccc1)Nc1cccc(NC(=O)c2ccco2)c1 | inconclusive: -42.6%
COc1nc(NC(=O)c2ccc(F)cc2)nc(OC)c1-c1ccccc1 | active: -64.2%
COC(=O)N/N=C/c1c[n+]([O-])c2ccccc2[n+]1[O-] | inconclusive: -47%
CCC(C)c1ccc(C(C)NC(=S)NCc2ccc(F)cc2)cc1 (stereo unspecified) | active: -66.9%
CCOC(=O)c1cccc(NC(=O)C(Cc2ccccc2)NS(=O)(=O)c2cccc3nsnc23)c1 (stereo unspecified) | inconclusive: -52.9%
CC(C)Cc1nnc(NC(=O)CCC(=O)N2CCN(c3ccc(Cl)cc3)CC2)s1 | inconclusive: -40.6%
Cc1ccc(-n2c(O)c(C=Nc3ccc(S(N)(=O)=O)cc3)c(=O)[nH]c2=O)cc1 | active: -104%
COc1ccc(C)cc1-n1nnnc1SCC(=O)c1cc(C)n(Cc2ccco2)c1C | inactive: 39.6%
COc1cccc(N2CCN(c3c4c(nc5ncnn35)CCC4)CC2)c1 | active: -86.1%
C=CCCC(=O)N1C[C@H]2CON(C)[C@H]2C[C@H]1c1cccc(Br)c1 | inactive: -2.75%
COc1ccc(-c2csc(N(CCCN(C)C)C(=O)c3ccccc3C)n2)cc1 | active: -60.8%
CC1=NOC(=O)/C1=C\c1ccc(-c2cc(Cl)ccc2Cl)o1 | active: -104%
CCN(CC)c1cc(C)c2cc(NC(=O)c3ccc(Br)o3)ccc2n1 | inconclusive: -41.3%
CCCCNC(=O)C1C(c2ccc(C(F)(F)F)cc2)=Nc2ccccc2N1C(C)=O (stereo unspecified) | inconclusive: -57.9%
COc1ccc(Cl)cc1NC(=O)CSc1nc2ccsc2c(=O)n1CC1CCC(C(=O)O)CC1 (stereo unspecified) | inconclusive: -52.3%

SMILES | activity change, negative = inhibition
c1c2c(cc3sc(N4CCCCC4)nc13)OCO2 | inactive: 5.5%
CCOc1ccc(CCNC(=O)C2CCC(CNS(=O)(=O)c3ccc(Cl)cc3)CC2)cc1OCC (stereo unspecified) | inactive: 5.33%
COc1cccc(-n2cc(C(=O)Nc3cc(C)c(Cl)cc3OC)c3ccccc3c2=O)c1 | inconclusive: -43.3%
CC(C)(C)Cc1nnc(NC(=O)c2ccco2)s1 | inactive: 137%
CSc1nc(N2CCOCC2)c2c(c1C#N)CC(C)(C)OC2 | inactive: 34%
O=C(/C=C\c1cn(-c2ccccc2)nc1-c1ccccc1)Nc1nccs1 | inconclusive: -57.2%
CN(c1ccccc1)S(=O)(=O)c1ccc(NC(=S)NC(=O)C2CC2)cc1 | inconclusive: -49.5%
COC(=O)C(NS(=O)(=O)c1ccc(N2CCCC2=O)cc1)c1ccccc1 (stereo unspecified) | inactive: 4.83%
CC1=C(C(=O)OCc2ccccc2)C(c2ccccc2)NC(=O)N1CCCC(=O)O (stereo unspecified) | inactive: 13.7%
CC(C)c1ccccc1OCC(O)CN(CC(O)COc1cccc2ccccc12)C(C)C (stereo unspecified) | inconclusive: -40.6%
OCCNCc1cc(Br)ccc1OCc1ccccc1Cl | active: -60.6%
Cc1cc(C)c(S(=O)(=O)N2CCOC2CNC(=O)C(=O)NCCCN2CCOCC2)c(C)c1 (stereo unspecified) | inconclusive: -58.1%
COc1cc2nc(NC(=O)c3ccco3)sc(=O)c2cc1OC | inconclusive: -51.4%
O=C(NCc1ccco1)c1cc(S(=O)(=O)N2CCCc3ccccc32)ccc1Cl | active: -67.4%
CN(C)CC1CSCCC1(O)c1ccc(C(F)(F)F)cc1 (stereo unspecified) | inconclusive: -48.7%
COc1cc(C2C(C#N)=C(N)N(N(C)C)C3=C2C(=O)CC(C)(C)C3)cc(OC)c1OC (stereo unspecified) | active: -81.8%
CN(C)c1ccc(/C=C(\C#N)c2ccccn2)cc1 | active: -83.8%
O=C(NCCc1ccccc1)c1ccc2c(c1)OCCO2 | active: -79.1%
CC1CCCC(C)N1C(=O)COC(=O)CNC(=O)c1ccccc1F (stereo unspecified) | inconclusive: -41.1%
CN(C)c1cccc2c1c(NC(=O)Nc1ccccc1)nn2C | inactive: -36.5%
COc1ccc(/C=C/c2onc(C)c2S(=O)(=O)N2CCC(C(=O)N3CCCCC3)CC2)cc1 | inconclusive: 0%
O=C(COC(=O)c1nc(Cl)ccc1Cl)NNC(=O)c1cccs1 | inactive: -19%

A second format for 22 compounds above:
SMILES	activity change, negative = inhibition
CCOC(=O)c1cccc(NC(=O)C(Cc2ccccc2)NS(=O)(=O)c2cccc3nsnc23)c1 (stereo unspecified)	inconclusive: -52.9%
CC(C)Cc1nnc(NC(=O)CCC(=O)N2CCN(c3ccc(Cl)cc3)CC2)s1	inconclusive: -40.6%
Cc1ccc(-n2c(O)c(C=Nc3ccc(S(N)(=O)=O)cc3)c(=O)[nH]c2=O)cc1	active: -104%
COc1ccc(C)cc1-n1nnnc1SCC(=O)c1cc(C)n(Cc2ccco2)c1C	inactive: 39.6%
COc1cccc(N2CCN(c3c4c(nc5ncnn35)CCC4)CC2)c1	active: -86.1%
C=CCCC(=O)N1C[C@H]2CON(C)[C@H]2C[C@H]1c1cccc(Br)c1	inactive: -2.75%
COc1ccc(-c2csc(N(CCCN(C)C)C(=O)c3ccccc3C)n2)cc1	active: -60.8%
CC1=NOC(=O)/C1=C\c1ccc(-c2cc(Cl)ccc2Cl)o1	active: -104%
CCN(CC)c1cc(C)c2cc(NC(=O)c3ccc(Br)o3)ccc2n1	inconclusive: -41.3%
CCCCNC(=O)C1C(c2ccc(C(F)(F)F)cc2)=Nc2ccccc2N1C(C)=O (stereo unspecified)	inconclusive: -57.9%
COc1ccc(Cl)cc1NC(=O)CSc1nc2ccsc2c(=O)n1CC1CCC(C(=O)O)CC1 (stereo unspecified)	inconclusive: -52.3%
c1c2c(cc3sc(N4CCCCC4)nc13)OCO2	inactive: 5.5%
CCOc1ccc(CCNC(=O)C2CCC(CNS(=O)(=O)c3ccc(Cl)cc3)CC2)cc1OCC (stereo unspecified)	inactive: 5.33%
COc1cccc(-n2cc(C(=O)Nc3cc(C)c(Cl)cc3OC)c3ccccc3c2=O)c1	inconclusive: -43.3%
CC(C)(C)Cc1nnc(NC(=O)c2ccco2)s1	inactive: 137%
CSc1nc(N2CCOCC2)c2c(c1C#N)CC(C)(C)OC2	inactive: 34%
O=C(/C=C\c1cn(-c2ccccc2)nc1-c1ccccc1)Nc1nccs1	inconclusive: -57.2%
CN(c1ccccc1)S(=O)(=O)c1ccc(NC(=S)NC(=O)C2CC2)cc1	inconclusive: -49.5%
COC(=O)C(NS(=O)(=O)c1ccc(N2CCCC2=O)cc1)c1ccccc1 (stereo unspecified)	inactive: 4.83%
CC1=C(C(=O)OCc2ccccc2)C(c2ccccc2)NC(=O)N1CCCC(=O)O (stereo unspecified)	inactive: 13.7%
CC(C)c1ccccc1OCC(O)CN(CC(O)COc1cccc2ccccc12)C(C)C (stereo unspecified)	inconclusive: -40.6%
OCCNCc1cc(Br)ccc1OCc1ccccc1Cl	active: -60.6%

Next part.

SMILES | activity change, negative = inhibition
O=S(=O)(Nc1cc(C(F)(F)F)ccc1N1CCOCC1)c1ccc2ccccc2c1 | inconclusive: -54.3%
COc1ccc(/C(N)=N/OC(=O)C2CCCCC2)cc1OC | inactive: -10.7%
CC1CCN(c2ccc(S(=O)(=O)Nc3cc(C(=O)O)cc(C(=O)O)c3)cc2[N+](=O)[O-])CC1 | inactive: 31%
CN(C)c1ccc(/C=N/N2CCN(Cc3ccccc3Cl)CC2)cc1 | inactive: -2.5%
COc1ccccc1CNC(=O)CN1C(=O)c2cccnc2Oc2ccccc21 | inactive: -21.1%
CCN1C(=O)[C@H]2[C@@H](c3ccc(-c4ccc(OC)cc4)c(OC)c3)N3CCCC[C@@]3(C(=O)OC)[C@H]2C1=O | inactive: 8.59%
Cc1c(NC(=O)c2ccccc2)cccc1[N+](=O)[O-] | inconclusive: -48.8%
O=C(c1ccc(Cn2c(=O)[nH]c3ccccc3c2=O)cc1)N1CCN(c2ccccc2)CC1 | inconclusive: -42.6%
COCCn1c(SCC#N)nnc1-c1ccc([N+](=O)[O-])cc1 | inactive: 13.4%
CN1CCc2c(OCC(=O)N3N=C(c4cccs4)CC3c3ccc(F)cc3)cccc2C1=O (stereo unspecified) | active: -88.6%
COc1ccc(/C=C/C(=O)c2ccc(NS(=O)(=O)c3ccc(C)cc3)cc2)cc1O | active: -96.5%
Cc1onc(-c2ccccc2)c1C(=O)OCC(=O)NCc1ccc(F)cc1 | inconclusive: -41.2%
O=c1c2c3c(sc2n(Cc2cc(=O)n4ccccc4n2)c(=O)n1-c1ccccc1)CCC3 | inactive: 11.4%
COc1cc(/C=C2\SC(=S)N(CCC(=O)Nc3ccccc3O)C2=O)cc(OC)c1OC | active: -68.9%
Cc1nc(CN(C)C(=O)C2CCC(=O)N(CCc3cccc(F)c3)C2)cs1 (stereo unspecified) | inconclusive: -46.9%
O=[N+]([O-])c1ccc(OCC2CC(c3ccccc3)=NO2)cc1 (stereo unspecified) | inactive: 32.1%
COc1ccc(S(=O)(=O)N2CCCc3ccccc32)cc1OC | inconclusive: -41.3%
CCCCC(=O)NC(c1ccccc1Cl)c1ccc2cccnc2c1O (stereo unspecified) | active: -95.9%
O=C(CCSCc1ccccc1Cl)N1CCN(c2ccc(F)cc2)CC1 | active: -63.8%
COCc1cc(C)nc2sc3c(c12)NC(c1ccccc1C(=O)O)N(c1ccc(OC)cc1)C3=O (stereo unspecified) | inactive: 11.5%
